Measured values published in the supplement of paper PMC8728848.
The list shows a part of the results.

Key:
Test in all cases: glycan array binding signal (z-score within array); higher = stronger binding
Details in all cases: glycan notation: IUPAC condensed, linker removed
[1] = target: Gal(b1-4)GlcNAc(b1-3)Gal(b1-4)GlcNAc(b1-3)Gal(b1-4)GlcNAc(b1-3)Gal(b1-4)GlcNAc(b1-2)Man(a1-3)[Gal(b1-4)GlcNAc(b1-3)Gal(b1-4)GlcNAc(b1-3)Gal(b1-4)GlcNAc(b1-3)Gal(b1-4)GlcNAc(b1-2)Man(a1-6)]Man(b1-4)GlcNAc(b1-4)GlcNAc
In short: (§1)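 Glycan array data came from 3228 arrays in the Consortium for Functional Glycomics database, and only arrays with an available protein sequence were kept. Glycan names were put into IUPAC-condensed notation, and columns mapping to the same glycan were averaged. The binding signal is a within-array Z-score, averaged across arrays of one protein sequence run at different concentrations or buffers and across linkers. A negative Z-score can be read as non-binding.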

[2] = target: Gal(b1-4)GlcNAc(b1-3)Gal(b1-4)GlcNAc(b1-3)Gal(b1-4)GlcNAc(b1-3)Gal(b1-4)GlcNAc(b1-2)Man(a1-3)[Gal(b1-4)GlcNAc(b1-3)Gal(b1-4)GlcNAc(b1-3)Gal(b1-4)GlcNAc(b1-3)Gal(b1-4)GlcNAc(b1-2)Man(a1-6)]Man(b1-4)GlcNAc(b1-4)[Fuc(a1-6)]GlcNAc
In short: as §1

[3] = target: Gal(b1-4)GlcNAc(b1-3)Gal(b1-4)GlcNAc(b1-3)Gal(b1-4)GlcNAc(b1-3)Gal(b1-4)GlcNAc(b1-2)[Gal(b1-4)GlcNAc(b1-3)Gal(b1-4)GlcNAc(b1-3)Gal(b1-4)GlcNAc(b1-3)Gal(b1-4)GlcNAc(b1-6)]Man(a1-6)[Gal(b1-4)GlcNAc(b1-3)Gal(b1-4)GlcNAc(b1-3)Gal(b1-4)GlcNAc(b1-3)Gal(b1-4)GlcNAc(b1-2)Man(a1-3)]Man(b1-4)GlcNAc(b1-4)[Fuc(a1-6)]GlcNAc
In short: as §1

[4] = target: Gal(b1-4)GlcNAc(b1-3)Gal(b1-4)GlcNAc(b1-3)Gal(b1-4)GlcNAc(b1-3)Gal(b1-4)GlcNAc(b1-3)Gal(b1-4)GlcNAc(b1-2)Man(a1-3)[Gal(b1-4)GlcNAc(b1-3)Gal(b1-4)GlcNAc(b1-3)Gal(b1-4)GlcNAc(b1-3)Gal(b1-4)GlcNAc(b1-3)Gal(b1-4)GlcNAc(b1-2)Man(a1-6)]Man(b1-4)GlcNAc(b1-4)GlcNAc
In short: as §1

[5] = target: Gal(b1-4)GlcNAc(b1-3)Gal(b1-4)GlcNAc(b1-3)Gal(b1-4)GlcNAc(b1-3)Gal(b1-4)GlcNAc(b1-3)Gal(b1-4)GlcNAc(b1-2)Man(a1-3)[Gal(b1-4)GlcNAc(b1-3)Gal(b1-4)GlcNAc(b1-3)Gal(b1-4)GlcNAc(b1-3)Gal(b1-4)GlcNAc(b1-3)Gal(b1-4)GlcNAc(b1-2)Man(a1-6)]Man(b1-4)GlcNAc(b1-4)[Fuc(a1-6)]GlcNAc
In short: as §1

[6] = target: Gal(b1-4)GlcNAc(b1-3)Gal(b1-4)GlcNAc(b1-3)Gal(b1-4)GlcNAc(b1-3)Gal(b1-4)GlcNAc(b1-3)Gal(b1-4)GlcNAc(b1-2)[Gal(b1-4)GlcNAc(b1-3)Gal(b1-4)GlcNAc(b1-3)Gal(b1-4)GlcNAc(b1-3)Gal(b1-4)GlcNAc(b1-3)Gal(b1-4)GlcNAc(b1-6)]Man(a1-6)[Gal(b1-4)GlcNAc(b1-3)Gal(b1-4)GlcNAc(b1-3)Gal(b1-4)GlcNAc(b1-3)Gal(b1-4)GlcNAc(b1-3)Gal(b1-4)GlcNAc(b1-2)Man(a1-3)]Man(b1-4)GlcNAc(b1-4)[Fuc(a1-6)]GlcNAc
In short: as §1

[7] = target: Gal(b1-4)GlcNAc(b1-3)Gal(b1-4)GlcNAc(b1-3)Gal(b1-4)GlcNAc(b1-3)Gal(b1-4)GlcNAc(b1-3)Gal(b1-4)GlcNAc(b1-3)Gal(b1-4)GlcNAc(b1-2)Man(a1-3)[Gal(b1-4)GlcNAc(b1-3)Gal(b1-4)GlcNAc(b1-3)Gal(b1-4)GlcNAc(b1-3)Gal(b1-4)GlcNAc(b1-3)Gal(b1-4)GlcNAc(b1-3)Gal(b1-4)GlcNAc(b1-2)Man(a1-6)]Man(b1-4)GlcNAc(b1-4)GlcNAc
In short: as §1

[8] = target: Gal(b1-4)GlcNAc(b1-3)Gal(b1-4)GlcNAc(b1-3)GalNAc
In short: as §1

[9] = target: Gal(b1-4)GlcNAc(b1-3)Gal(b1-4)GlcNAc(b1-3)[Gal(b1-4)GlcNAc(b1-3)Gal(b1-4)GlcNAc(b1-6)]GalNAc
In short: as §1

[10] = target: Gal(b1-4)GlcNAc(b1-3)Gal(b1-4)GlcNAc(b1-6)[Gal(b1-3)]GalNAc
In short: as §1

[11] = target: Gal(b1-4)GlcNAc(b1-3)Gal(b1-4)[Fuc(a1-3)]GlcNAc(b1-3)Gal(b1-4)[Fuc(a1-3)]GlcNAc
In short: as §1

[12] = target: Gal(b1-4)GlcNAc(b1-3)GalNAc
In short: as §1

[13] = target: Gal(b1-4)GlcNAc(b1-3)[Fuc(a1-3)GlcNAc(b1-6)]Gal(b1-4)Glc
In short: as §1

[14] = target: Gal(b1-4)GlcNAc(b1-3)[Gal(b1-4)GlcNAc(b1-6)]Gal(b1-4)GlcNAc
In short: as §1

[15] = target: Gal(b1-4)GlcNAc(b1-3)[GlcNAc(b1-6)]Gal(b1-4)GlcNAc
In short: as §1

[16] = target: Gal(b1-4)GlcNAc(b1-6)Gal(b1-4)GlcNAc
In short: as §1

[17] = target: Gal(b1-4)GlcNAc(b1-6)GalNAc
In short: as §1

[18] = target: Gal(b1-4)GlcNAc(b1-6)[Gal(b1-3)]GalNAc
In short: as §1

[19] = target: Gal(b1-4)GlcNAc(b1-6)[Gal(b1-4)GlcNAc(b1-3)]GalNAc
In short: as §1

Gal(b1-4)GlcNAc6P = target: Gal(b1-4)GlcNAc6P
In short: as §1

Gal(b1-6)Gal = target: Gal(b1-6)Gal
In short: as §1

Gal3S(b1-3)GalNAc = target: Gal3S(b1-3)GalNAc
In short: as §1

Gal3S(b1-3)GlcNAc = target: Gal3S(b1-3)GlcNAc
In short: as §1

[20] = target: Gal3S(b1-3)[Fuc(a1-4)]GlcNAc
In short: as §1

Gal3S(b1-4)Glc = target: Gal3S(b1-4)Glc
In short: as §1

Gal3S(b1-4)Glc6S = target: Gal3S(b1-4)Glc6S
In short: as §1

Gal3S(b1-4)GlcNAc = target: Gal3S(b1-4)GlcNAc
In short: as §1

[21] = target: Gal3S(b1-4)[Fuc(a1-3)]Glc6S
In short: as §1

[22] = target: Gal3S(b1-4)[Fuc(a1-3)]GlcNAc
In short: as §1

[23] = target: Gal3S(b1-4)[Fuc(a1-3)]GlcNAc6S
In short: as §1

Gal3S4S(b1-4)GlcNAc = target: Gal3S4S(b1-4)GlcNAc
In short: as §1

Gal3S6S(b1-4)GlcNAc = target: Gal3S6S(b1-4)GlcNAc
In short: as §1

Gal3S6S(b1-4)GlcNAc6S = target: Gal3S6S(b1-4)GlcNAc6S
In short: as §1

Gal4S(b1-4)GlcNAc = target: Gal4S(b1-4)GlcNAc
In short: as §1

Gal4S6S(b1-4)GlcNAc = target: Gal4S6S(b1-4)GlcNAc
In short: as §1

Gal6P(b1-4)GlcNAc = target: Gal6P(b1-4)GlcNAc
In short: as §1

Gal6S(b1-3)GlcNAc = target: Gal6S(b1-3)GlcNAc
In short: as §1

Gal6S(b1-3)GlcNAc6S = target: Gal6S(b1-3)GlcNAc6S
In short: as §1

B1: Erv46-EDTA (Saccharomyces cerevisiae), P39727 (protein)
chain: MKFLVNVALVFMVVYISYIYAAAPEHHHHHHDYDIPTTENLYFQGAMDSVVTRPQLVVDRDRHAKLELNMDVTFPSMPCDLVNLDIMDDSGEMQLDILDAGFTMSRLNSEGRPVGDATELHVGGNGDGTAPVNNDPNYCGPCYGAKDQSQNENLAQEEKVCCQDCDAVRSAYLEAGWAFFDGKNIEQCEREGYVSKINEHLNEGCRIKGSAQINRIQGNLHFAPGKPYQNAYGHFHDTSLYDKTSNLNFNHIINHLSFGKPIQSHSKLLGNDKRHGGAVVATSPLDGRQVFPDRNTHFHQFSYFAKIVPTRYEYLDNVVIETAQFSATFHSRPLAGGRDKDHPNTLHVRGGIPGMFVFFEMSPLKVINKEQ
[1]
  glycan array binding signal (z-score): 0.46
[2]
  glycan array binding signal (z-score): 0.506
[3]
  glycan array binding signal (z-score): 2.05
[4]
  glycan array binding signal (z-score): 0.249
[5]
  glycan array binding signal (z-score): 1.81
[6]
  glycan array binding signal (z-score): 1.32
[7]
  glycan array binding signal (z-score): 1.41
[8]
  glycan array binding signal (z-score): 2.4
[9]
  glycan array binding signal (z-score): 0.347
[10]
  glycan array binding signal (z-score): -0.202
[11]
  glycan array binding signal (z-score): 0.231
[12]
  glycan array binding signal (z-score): -0.116
[13]
  glycan array binding signal (z-score): -0.11
[14]
  glycan array binding signal (z-score): -0.821
[15]
  glycan array binding signal (z-score): -0.81
[16]
  glycan array binding signal (z-score): -0.78
[17]
  glycan array binding signal (z-score): 0.987
[18]
  glycan array binding signal (z-score): -0.3
[19]
  glycan array binding signal (z-score): -0.11
Gal(b1-4)GlcNAc6P
  glycan array binding signal (z-score): -0.826
Gal(b1-6)Gal
  glycan array binding signal (z-score): -0.241
Gal3S(b1-3)GalNAc
  glycan array binding signal (z-score): 0.736
Gal3S(b1-3)GlcNAc
  glycan array binding signal (z-score): -0.252
[20]
  glycan array binding signal (z-score): 1.12
Gal3S(b1-4)Glc
  glycan array binding signal (z-score): -0.456
Gal3S(b1-4)Glc6S
  glycan array binding signal (z-score): -0.683
Gal3S(b1-4)GlcNAc
  glycan array binding signal (z-score): 0.203
[21]
  glycan array binding signal (z-score): 0.233
[22]
  glycan array binding signal (z-score): -0.802
[23]
  glycan array binding signal (z-score): 0.133
Gal3S4S(b1-4)GlcNAc
  glycan array binding signal (z-score): 0.107
Gal3S6S(b1-4)GlcNAc
  glycan array binding signal (z-score): -0.461
Gal3S6S(b1-4)GlcNAc6S
  glycan array binding signal (z-score): 0.056
Gal4S(b1-4)GlcNAc
  glycan array binding signal (z-score): -0.26
Gal4S6S(b1-4)GlcNAc
  glycan array binding signal (z-score): -0.157
Gal6P(b1-4)GlcNAc
  glycan array binding signal (z-score): -0.001
Gal6S(b1-3)GlcNAc
  glycan array binding signal (z-score): -0.805
Gal6S(b1-3)GlcNAc6S
  glycan array binding signal (z-score): -0.85
